Measured values as given in publication PMC6318295, “Plant HP1 protein ADCP1 links multivalent H3K9 methylation readout to heterochromatin formation” (Cell Research, 2018).

Test system: H3K9me3 NA
Assay: Phase separation with H3K9me3 nucleosome array
Conditions: ADCP1 15 μM, H3K9me3 2.2 μM; HP1A and HP1α 25 μM with H3K9me3 0.84 μM; 1 h room temperature

| Molecule | phase separation / puncta formation with H3K9me3 NA |
| --- | --- |
| HP1α: human HP1α, Heterochromatin Protein 1 | H3K9me3 NA promotes phase transition of HP1α and HP1a in comparison with native NA |
| HP1a: fly HP1a, Heterochromatin Protein 1 | H3K9me3 NA promotes phase transition of HP1α and HP1a in comparison with native NA |
| ADCP1: plant-specific poly-Agenet protein comprising three tandem Agenet modular domains (protein) MLRPRRSLGVSSPAKQRKKAAPKNSMATRANRKRLPSYLKPGSAVEISSDEIGFRGSWYMGKVITIPSSSDKDSVKCQVEYTTLFFDKEGTKPLKEVVDMSQLRPPAPPMSEIEKKKKIVVGEEVDAFYNDGWWEGDVTEVLDDGKFSVFFRSSKEQIRFRKDELRFHREWVDGAWKPPLEETEEEEDESEEDKLDDSEDEEDILARVDLETTRAIAKQMFSSGTVVEVSSDEEGFQGCWFAAKVVEPVGEDKFLVEYRDLREKDGIEPLKEETDFLHIRPPPPRDEDIDFAVGDKINAFYNDGWWVGVVIDGMKHGTVGIYFRQSQEKMRFGRQGLRLHKDWVDGTWQLPLKGGKIKREKTVSCNRNVRPKKATEKQAFSIGTPIEVSPEEEGFEDSWFLAKLIEYRGKDKCLVEYDNLKAEDGKEPLREEVNVSRIRPLPLESVMVSPFERHDKVNALYNDGWWVGVIRKVLAKSSYLVLFKNTQELLKFHHSQLRLHQEWIDGKWITSFKSQKV | forms DNA-rich puncta with H3K9me3 NA; also recorded: form phase transition with ADCP1 |

Entries after “also recorded” stand apart in the source; their conditions may differ.
